Measured data: PubChem BioAssay AID504764 (Drosophila RNAi Screening Center, 2011)

Assay: 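Knock-downs that raise or lower a Notch target reporter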 (primary screen)
System: Drosophila Kc167 cells
Reagent: long dsRNA against Drosophila genes
Duration: about 5 days (4 days dsRNA, then 24 h after transfection)
Treatment: transfection of constitutively active membrane-tethered Notch lacking the extracellular domain, read 24 h later
Measured: 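Firefly luciferase from an E(spl)m3 reporter with active Notch, plus control-promoter and uninduced reporter wells for normalisation; unnormalised counts, duplicate wells a and b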
Reading the numbers: induced reporter light, run 1, well a and induced reporter light, run 1, well b: higher = more light from the Notch target reporter with active Notch; control promoter light, run 1, well a and control promoter light, run 1, well b: higher = more light from the viral control promoter (cell number, transfection, viability); uninduced reporter light, run 1, well a: higher = more light from the Notch target reporter without active Notch
Hit rule: 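Wells with low control signal or poorly matching duplicates excluded; duplicates averaged; per source plate, z beyond ±2 for induced/control log2 ratio or beyond ±1.8 for induced/uninduced marks a hit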
Meaning of the calls: active = modifier hit (raised or lowered Notch signal); inactive = not a hit
The screen tested about 22,000 reagents; shown is a random part of those with a known target gene and a result. In the full data, 403 (1.9%) are marked active. 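Unnormalised raw counts per well; ratio z-scores behind the hit calls and whether each hit raises or lowers signal are not deposited.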 Reagents against one gene are numbered here. A plus sign joins genes that one reagent is predicted to hit. No sequences are given here. Not given: the amount of reagent.

The first 6 records, ahead of the listing:
no.	predicted target	reagent	induced reporter light, run 1, well a	induced reporter light, run 1, well b	control promoter light, run 1, well a	control promoter light, run 1, well b	uninduced reporter light, run 1, well a	call
1	CG4098	1	1.87e5	1.58e5	2.32e5	1.71e5	9080	inactive
2	Stt3A	1	1.41e5	1.10e5	92390	55035	12740	inactive
3	CheA84a	1	1.72e5	1.24e5	1.48e5	1.55e5	12145	inactive
4	Lsm12a	1	1.48e5	1.42e5	3.61e5	3.18e5	11450	inactive
5	CG34462	1	2.81e5	2.07e5	2.59e5	2.05e5	14020	inactive
6	CG5568	1	91750	1.07e5	70155	29125	8435	inactive

The listing, repeating the preview:
no.	predicted target	reagent	induced reporter light, run 1, well a	induced reporter light, run 1, well b	control promoter light, run 1, well a	control promoter light, run 1, well b	uninduced reporter light, run 1, well a	call
1	CG4098	1	1.87e5	1.58e5	2.32e5	1.71e5	9080	inactive
2	Stt3A	1	1.41e5	1.10e5	92390	55035	12740	inactive
3	CheA84a	1	1.72e5	1.24e5	1.48e5	1.55e5	12145	inactive
4	Lsm12a	1	1.48e5	1.42e5	3.61e5	3.18e5	11450	inactive
5	CG34462	1	2.81e5	2.07e5	2.59e5	2.05e5	14020	inactive
6	CG5568	1	91750	1.07e5	70155	29125	8435	inactive
7	hydra	1	86735	1.18e5	1.28e5	1.71e5	11735	inactive
8	Lamtor4	1	1.21e5	1.22e5	1.51e5	1.64e5	5400	inactive
9	CG8326	1	98545	1.01e5	87860	52960	8065	inactive
10	Pp2A-29B	1	1.60e5	1.90e5	85430	1.03e5	19840	inactive
11	Tim17a2	1	87780	83670	1.21e5	96640	9115	inactive
12	AstA-R2	1	1.21e5	1.45e5	1.67e5	1.69e5	13050	inactive
13	Pax	1	82270	66895	82030	48825	5970	inactive
14	Pax	2	2.13e5	2.20e5	2.34e5	2.74e5	17980	inactive
15	Pax	3	49715	32660	36130	42560	1942	inactive
16	CG1622	1	2.28e5	2.43e5	2.32e5	2.39e5	15120	inactive
17	CG14618	1	99200	1.03e5	81960	1.11e5	9788	inactive
18	CG1441	1	1.53e5	1.61e5	1.63e5	1.44e5	12905	inactive
19	CG14053	1	1.35e5	1.19e5	2.09e5	2.19e5	9530	inactive
20	CG42254 (retired record)	1	81200	85190	1.04e5	1.06e5	8335	inactive
21	CG14657	1	1.64e5	1.07e5	1.45e5	1.37e5	8350	inactive
22	CG14657	2	1.45e5	1.36e5	1.13e5	1.03e5	10860	inactive
23	CG14778	1	1.34e5	1.07e5	1.86e5	1.88e5	8095	inactive
24	CG42724	1	69230	54865	40445	45555	5660	inactive
25	CG42724	2						inactive
26	CG7183	1	2.49e5	1.93e5	2.76e5	2.83e5	18335	inactive
27	Ca-beta	1	98680	1.23e5	60775	93410	14410	inactive
28	Ca-beta	2	1.15e5	1.40e5	61315	97380	20270	inactive
29	Ca-beta	3	1.32e5	1.56e5	77505	1.20e5	16995	inactive
30	CG12692	1	1.57e5	1.45e5	2.08e5	2.17e5	10250	inactive
31	Root	1	1.84e5	1.88e5	2.25e5	2.09e5	14455	inactive
32	CG5850	1	2.12e5	1.92e5	1.41e5	1.48e5	16265	inactive
33	CG17385	1	1.00e5	96870	1.51e5	1.43e5	11430	inactive
34	lolal	1	1.04e5	1.05e5	1.81e5	1.84e5	7805	inactive
35	tyn	1	93195	85315	78510	90805	9782	inactive
36	CG14014	1	1.61e5	1.76e5	2.12e5	1.77e5	11830	inactive
37	TwdlF	1	1.11e5	1.11e5	80115	61850	10430	inactive
38	InR	1	1.66e5	1.29e5	1.55e5	1.41e5	10375	inactive
39	CG6843	1	1.20e5	88680	1.68e5	1.16e5	7550	inactive
40	CG17660	1	2.15e5	2.25e5	2.21e5	2.20e5	17220	inactive
41	CG31556 (retired record)	1	1.29e5	1.44e5	1.55e5	98970	12460	inactive
42	Nepl20	1	1.24e5	1.34e5	1.56e5	1.81e5	11505	inactive
43	CG42375 + CG9288	1	1.96e5	2.14e5	1.32e5	1.45e5	13140	inactive
44	ECSIT	1	40590	58215	52315	36570	5330	inactive
45	CG12521	1	1.19e5	1.33e5	2.33e5	1.41e5	7045	inactive
46	CG9395	1	1.90e5	1.87e5	2.13e5	2.16e5	12215	inactive
47	Kdm2	1	2.28e5	2.20e5	1.30e5	1.36e5	14790	inactive
48	CG7794	1	1.44e5	1.34e5	1.57e5	1.58e5	10395	inactive
49	CG15169	1	33880	31245	32975	51455	1770	inactive
50	Cbl	1	1.29e5	1.54e5	1.48e5	1.03e5	8105	inactive
51	Cbl	2	1.87e5	1.76e5	1.56e5	1.79e5	8010	inactive
